PubChem BioAssay AID652272 | Drosophila RNAi Screening Center, 2013
Assay: 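Genes whose knock-down decreases or increases Hedgehog reporter output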 (primary screen). Cell system: Drosophila clone 8 (Cl8) cells. Knock-down reagent: long dsRNA against Drosophila genes. Measurement: 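Firefly light from a Hedgehog-responsive ptc promoter reporter and Renilla reference light, both read on a plate reader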. Scale: firefly Hh reporter signal: higher = more ptc reporter light; Renilla reference signal: higher = more Renilla control light. Call rule: 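Called a hit if the two-replicate mean z-score lies below -2 or above +3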. Calls: active = hit: reporter lowered or raised; inactive = not a hit.
In all, the deposit lists about 21,000 reagents; shown is an unselected part of those that have a named target and a result. Over the whole deposit, 503 (2.4%) got an active call. 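Raw plate light values, not normalised; calls rest on replicate z-scores that were not deposited; hits include reporter decreases as well as increases.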 Entries without a mark were called inactive. No sequences are given here. Not given: the amount of reagent, the time to read-out.

gene knocked down | DRSC id | firefly Hh reporter signal, replicate 1 | firefly Hh reporter signal, replicate 2 | firefly Hh reporter signal, replicate 3 | Renilla reference signal, replicate 1 | Renilla reference signal, replicate 2
Eig71Ei | DRSC11156 | 1.64e5 | – | – | 6597 | 4647
futsch | DRSC17688 | 4.87e5 | 2.41e5 | – | 24972 | 5045
futsch | DRSC17949 | 68683 | 4.06e5 | 1.93e5 | 1545 | 4507
futsch | DRSC17952 | 1.08e5 | 1.11e5 | – | 1866 | 3808
futsch | DRSC18543 | 62523 | 1.88e5 | – | 1110 | 7819
CG10877 | DRSC14274 | 5.64e5 | 1.05e5 | – | 29851 | 2688
Pld3 (Phospholipase D family member 3) | DRSC03167 | 54016 | 63891 | – | 2659 | 2204
Ir11a (Ionotropic receptor 11a) | DRSC19699 | 61572 | 1.77e5 | – | 1020 | 7200
lncRNA:CR42735 (retired record) | DRSC00921 | 5.60e5 | 1.64e5 | – | 27691 | 6676
CG31288 | DRSC14667 | 5.96e5 | 1.58e5 | – | 29610 | 4337
CG32459 | DRSC11852 | 1.10e5 | 1.40e5 | – | 3888 | 3237
OtopLa (Otopetrin-like a) | DRSC17787 | 81612 | 4.95e5 | 2.54e5 | 3394 | 3483
OtopLa (Otopetrin-like a) | DRSC18133 | 93434 | 2.77e5 | – | 3632 | 11089
CG5194 | DRSC10492 | 84167 | 74323 | – | 3380 | 3223
mRRF1 (mitochondrial ribosome recycling factor 1) | DRSC10421 | 1.39e5 | 59323 | – | 5821 | 2593
odd (odd skipped) | DRSC00832 | 58187 | 8946 | – | 1744 | 1506
Obp19b (Odorant-binding protein 19b) | DRSC20536 | 67064 | 1.92e5 | – | 1968 | 9105
Shark (SH2 ankyrin repeat kinase) | DRSC07680 | 1.70e5 | 1.09e5 | – | 6473 | 4357
Jon25Bii (Jonah 25Bii) | DRSC03114 | 1.48e5 | 47257 | – | 3754 | 5284
Rel (Relish) | DRSC16819 | 1.18e5 | 75133 | – | 4803 | 2923
Jhbp14 (Juvenile hormone binding protein 14) | DRSC01988 | 1.65e5 | 58950 | – | 4056 | 4915

Entries above whose target name begins with O or o (4):
gene knocked down | DRSC id | firefly Hh reporter signal, replicate 1 | firefly Hh reporter signal, replicate 2 | firefly Hh reporter signal, replicate 3 | Renilla reference signal, replicate 1 | Renilla reference signal, replicate 2
OtopLa (Otopetrin-like a) | DRSC17787 | 81612 | 4.95e5 | 2.54e5 | 3394 | 3483
OtopLa (Otopetrin-like a) | DRSC18133 | 93434 | 2.77e5 | – | 3632 | 11089
odd (odd skipped) | DRSC00832 | 58187 | 8946 | – | 1744 | 1506
Obp19b (Odorant-binding protein 19b) | DRSC20536 | 67064 | 1.92e5 | – | 1968 | 9105

Additional entries follow.
gene knocked down | DRSC id | firefly Hh reporter signal, replicate 1 | firefly Hh reporter signal, replicate 2 | firefly Hh reporter signal, replicate 3 | Renilla reference signal, replicate 1 | Renilla reference signal, replicate 2
lap (like-AP180) | DRSC12628 | 1.08e5 | 83644 | – | 4762 | 3144
Kdm5 (Lysine demethylase 5) | DRSC03133 | 91601 | 51517 | – | 2472 | 1910
CG13114 | DRSC02212 | 1.33e5 | 97195 | – | 3557 | 7393
z (zeste) | DRSC18855 | 34380 | 49954 | – | 858 | 1709
Phae2 (Phaedra 2) | DRSC02555 | 1.56e5 | 88613 | – | 3857 | 6932
zye | DRSC11784 | 1.09e5 | 1.46e5 | – | 3798 | 3498
CG6277 | DRSC16008 | 1.12e5 | 1.27e5 | – | 4032 | 3844
CG15034 | DRSC17966 | 73171 | 2.92e5 | – | 2925 | 10054
CG34386 | DRSC06467 | 69980 | 28067 | – | 1546 | 2464
CG34386 | DRSC06468 | 63696 | 83204 | – | 1761 | 5953
CG7988 | DRSC16358 | 6.83e5 | 92853 | – | 32101 | 2285
Arl8 (ADP ribosylation factor-like 8) | DRSC16334 | 1.04e5 | 1.57e5 | – | 4424 | 4451
SmD2 (Small ribonucleoprotein particle protein SmD2) | DRSC12536 | 84941 | 62347 | – | 4178 | 3056
PsGEF (Protostome-specific GEF) | DRSC18596 | 39178 | 2.00e5 | – | 871 | 7676
PsGEF (Protostome-specific GEF) | DRSC18600 | 55561 | 2.09e5 | – | 1754 | 9434
PsGEF (Protostome-specific GEF) | DRSC18601 | 43185 | 1.08e5 | – | 860 | 4827
Vps28 (Vacuolar protein sorting 28) | DRSC06168 | 81098 | 70471 | – | 3378 | 2923
CG13694 | DRSC00363 | 1.33e5 | 1.12e5 | – | 3244 | 2720
gig (gigas) | DRSC11351 | 1.08e5 | 84712 | – | 4379 | 3143
CG15882 | DRSC19735 | 73664 | 1.95e5 | – | 1232 | 7794
betaTub97EF (beta-Tubulin at 97EF) | DRSC15666 | 1.54e5 | 94052 | – | 5427 | 2615
betaTub97EF (beta-Tubulin at 97EF) | DRSC15667 | 1.51e5 | 1.15e5 | – | 5132 | 3507
betaTub97EF (beta-Tubulin at 97EF) | DRSC15668 | 1.19e5 | 81059 | – | 4524 | 2628
CG11807 | DRSC06087 | 91804 | 77267 | – | 3408 | 3072
Cypl (Cyclophilin-like) | DRSC08362 | 67321 | 39735 | – | 1908 | 3174
CG42807 | DRSC06966 | 77271 | 63195 | – | 1828 | 4736
Ankrd49 | DRSC01894 | 78262 | 66329 | – | 2370 | 5981
Grp170 (Grp170 co-chaperone) | DRSC18524 | 1.05e5 | 1.17e5 | – | 2729 | 3929
CG8004 | DRSC10947 | 71867 | 71376 | – | 3440 | 2962
COX4 (Cytochrome c oxidase subunit 4) | DRSC02091 | 68848 | 29824 | – | 2036 | 1433
Not3 (CCR4-NOT transcription complex subunit 3) | DRSC04908 | 33211 (active) | 37764 | – | 2454 | 2554
CG13309 | DRSC09980 | 35829 | 43882 | – | 5792 | 3073
Rab7 | DRSC16810 | 1.21e5 | 63378 | – | 5065 | 2972
CG34376 | DRSC14695 | 3.67e5 | 1.57e5 | – | 22693 | 416
CG34376 | DRSC14696 | 5.15e5 | 1.54e5 | – | 32716 | 440
CG34376 | DRSC14701 | 3.09e5 | 1.69e5 | – | 17824 | 423
